{
  "source": "PubChem BioAssay AID540276",
  "about": "(National Center for Advancing Translational Sciences (NCATS), 2011)",
  "note": "The campaign covered roughly 300,000 compounds. About 5,400 (1.8%) were called active. The shares of active, inactive and inconclusive entries below differ from those in the screen. Calls follow the shape of the full dose curve; tested in HEK293 cells. Potencies of inconclusive entries are doubtful fits and often do not repeat. Potency is read from the fitted curve at half-maximal effect.",
  "data": [
    {"assay": "qHTS for inhibitors of binding or entry into cells for Marburg Virus", "details": "Marburg virus pseudotyped entry inhibition, cell reporter; series mostly up to 37.8 µM", "values": [
      {"compound": "CN(CC(=O)Nc1ccc(Cl)cc1)C(=O)c1ccc(-n2cncn2)c([N+](=O)[O-])c1", "Potency": "inconclusive: 35.5 µM [inhibitor, partial curve, poor fit]"},
      {"compound": "CN(c1ccccc1)c1ccc(/C=C(\\C#N)c2nnc3n2CCCCC3)cc1[N+](=O)[O-]", "Potency": "inconclusive: 1.58 µM [inhibitor, full curve, poor fit]"},
      {"compound": "CC(C(=O)c1ccc(-c2ccccc2)cc1)[n+]1cccc(NC(=O)c2ccccc2)c1", "note": "(stereo not drawn)", "Potency": "inactive"},
      {"compound": "CCC(C(=O)NCc1ccc(F)cc1)N(CCc1ccccc1)C(=O)c1snc(C(N)=O)c1N", "note": "(stereo not drawn)", "Potency": "inconclusive: 6.31 µM [activator, single point]"},
      {"compound": "Cc1cccc(S(=O)(=O)C(C#N)c2nc3ccccc3nc2N2CC(C)OC(C)C2)c1", "note": "(stereo not drawn)", "Potency": "inconclusive: 29.1 µM [inhibitor, single point]"},
      {"compound": "Cc1ccccc1OCCC(=O)Nc1cc(S(=O)(=O)N2CCOCC2)ccc1OC(C)C", "Potency": "inconclusive: 35.5 µM [inhibitor, single point]"},
      {"compound": "CCOCCCNC(=O)CN1C(=O)COc2ccc(S(=O)(=O)N3CCOCC3)cc21", "Potency": "inactive"},
      {"compound": "C1CCCN(C2CCNCC2)CC1", "Potency": "inconclusive: 14.1 µM [inhibitor, single point]"},
      {"compound": "COC(=O)c1cc(-c2ccc(NC(C)=O)cc2)nc2ccccc12", "Potency": "inconclusive: 35.5 µM [inhibitor, single point]"},
      {"compound": "O=C(c1cc(Sc2cccc(Cl)c2)nc2ccccc12)N1CCN(c2ccccn2)CC1", "Potency": "inconclusive: 7.08 µM [inhibitor, partial curve, poor fit]"},
      {"compound": "C(=N\\Nc1nc(N2CCOCC2)nc(N2CCOCC2)n1)/c1ccncc1", "Potency": "inconclusive: 1 µM [activator, full curve, poor fit]"},
      {"compound": "Nc1oc2ccc(F)cc2c(=O)c1C=O", "Potency": "inconclusive: 0.501 µM [inhibitor, full curve, poor fit]"},
      {"compound": "N/C(=N\\OC(=O)/C=C/c1ccc(Br)cc1)c1ccccn1", "Potency": "inconclusive: 7.08 µM [inhibitor, partial curve, poor fit]"},
      {"compound": "Cc1ccc(NC(=O)C2CCN(C(=O)c3cnn(-c4ccccc4)c3-n3cccc3)CC2)cc1Cl", "Potency": "inconclusive: 0.562 µM [inhibitor, full curve, poor fit]"},
      {"compound": "Cc1ccc(S(=O)(=O)N2CCOCC2)cc1N/N=C(\\C#N)c1nc2ccccc2[nH]1", "Potency": "inactive"},
      {"compound": "COc1ccc(C2=NOC(Cn3c(Cc4ccc(Cl)cc4)nc4c3c(=O)n(C)c(=O)n4C)C2)cc1", "note": "(stereo not drawn)", "Potency": "inactive"},
      {"compound": "COc1cc(OC)c(C2Oc3nc(SC)nnc3-c3ccccc3N2C(C)=O)cc1OC", "note": "(stereo not drawn)", "Potency": "inactive"},
      {"compound": "COc1ccc2sc(C)nc2c1NC(C)=O", "Potency": "inactive"},
      {"compound": "CC(=O)c1ccc(NC(=O)CC2Sc3ccccc3NC2=O)cc1", "note": "(stereo not drawn)", "Potency": "inconclusive: 4.47 µM [activator, partial curve]"},
      {"compound": "COc1cccc(-c2cc(C(F)(F)F)n3nc(C(=O)N4CCCCC4c4cccnc4)cc3n2)c1", "note": "(stereo not drawn)", "Potency": "inconclusive: 15.8 µM [inhibitor, partial curve, poor fit]"},
      {"compound": "O=C(N/N=C/c1c(Cl)cccc1Cl)c1n[nH]c2c1CCCC2", "Potency": "inactive"},
      {"compound": "COCCn1c(N)c(NCc2ccccc2)c(=O)[nH]c1=O", "Potency": "inconclusive: 17.8 µM [activator, single point]"},
      {"compound": "CCN(CC)S(=O)(=O)c1cccc(-c2nnc(SC(C)C#N)n2Cc2ccccc2)c1", "note": "(stereo not drawn)", "Potency": "inconclusive: 25.9 µM [inhibitor, partial curve, poor fit]"},
      {"compound": "COc1ccc(/C=C2\\CCc3ccccc3C2=O)cc1Cn1nc(C)cc1C", "Potency": "inconclusive: 29.1 µM [inhibitor, partial curve, poor fit]"},
      {"compound": "O=C(NCc1ccco1)c1cc(-c2ccncc2)nc2ccccc12", "Potency": "inconclusive: 29.1 µM [inhibitor, single point]"},
      {"compound": "O=C1CC(N2CCN(Cc3ccccc3)CC2)C(=O)N1c1ccc2c(c1)OCCO2", "note": "(stereo not drawn)", "Potency": "inactive"},
      {"compound": "COC(=O)C(C(=O)OC)c1ccc(NC(=O)c2cccc(Cl)c2)cc1", "Potency": "inconclusive: 3.16 µM [activator, single point]"},
      {"compound": "O=C(/C=C/NNC(=O)c1ccccc1)c1ccc(Br)cc1", "Potency": "inconclusive: 35.5 µM [inhibitor, single point]"},
      {"compound": "Cc1cc(C)c(OCC(=O)OCC(=O)N2CCN(C(=O)c3ccco3)CC2)c(C)c1", "Potency": "inconclusive: 1.58 µM [activator, partial curve, poor fit]"},
      {"compound": "CSCC[C@H](NC(=O)c1cccc(S(=O)(=O)N2CCCCC2)c1)c1nc2ccccc2[nH]1", "Potency": "inconclusive: 11.2 µM [inhibitor, partial curve, poor fit]"},
      {"compound": "Cc1cc(C)n(-c2ncnc3sc4c(c23)CC(C)CC4)n1", "note": "(stereo not drawn)", "Potency": "inconclusive: 1.3 µM [inhibitor, full curve]"},
      {"compound": "Cc1cccn2c(=O)c(C=O)c(N3CCCCC3)nc12", "Potency": "inconclusive: 22.4 µM [activator, partial curve, poor fit]"},
      {"compound": "COc1ccccc1CNC(=O)CSc1ccc(C)cc1", "Potency": "inconclusive: 6.31 µM [activator, single point]"},
      {"compound": "CC(=NNC(=O)c1ccncc1)c1ccc2ccccc2c1O", "Potency": "active: 7.94 µM"},
      {"compound": "COc1ccc(CC2(CO)CCN(Cc3cccc(OC)c3OC)CC2)cc1", "Potency": "inconclusive: 14.1 µM [inhibitor, single point]"},
      {"compound": "CCCN(CCC)c1cc(C)nc2nc(-c3ccc(Cl)cc3)nn12", "Potency": "inconclusive: 3.55 µM [activator, single point]"},
      {"compound": "Cc1cnc(CN2CCc3c([nH]c4ccccc34)C2CC(C)C)[nH]1", "note": "(stereo not drawn)", "Potency": "inconclusive: 35.5 µM [inhibitor, single point]"},
      {"compound": "CCC(=O)N1CCc2cc(S(=O)(=O)NC(Cc3ccccc3)C(=O)NCc3cccc(OC)c3)ccc21", "note": "(stereo not drawn)", "Potency": "inactive"},
      {"compound": "CCOC1(C)OCC(=O)[C@]2(CCC3C4CCC5=CC(=O)C=CC5(C)C4C(=O)CC32C)O1", "note": "(stereo partly drawn)", "Potency": "inactive"},
      {"compound": "O=C(Nc1ccccc1C(=O)NCc1cccnc1)c1ccccc1Cl", "Potency": "inconclusive: 1.26 µM [inhibitor, single point]"},
      {"compound": "CCc1c(C)nc(N)nc1N1N=C1SCC(=O)OC", "Potency": "inactive"},
      {"compound": "Cc1ccc(N2C(=O)[C@@H]3[C@H](C2=O)C2c4ccccc4C=NN2[C@@H]3C(=O)c2ccc(Cl)cc2)cc1", "note": "(stereo partly drawn)", "Potency": "inconclusive: 6.51 µM [activator, partial curve, poor fit]"},
      {"compound": "Cn1c2ccccc2c2cc(C(=O)N3CCN(CCO)CC3)sc21", "Potency": "inactive"},
      {"compound": "COc1ccc(C(=O)n2c(-c3ccco3)nc3ccccc32)cc1", "Potency": "inactive"},
      {"compound": "O=C(c1ccco1)N(Cc1ccccc1)Cc1ccccn1", "Potency": "inactive"},
      {"compound": "CC(=O)N1CCN(c2ccc(NC(=S)NC(=O)c3ccc(C)c([N+](=O)[O-])c3)cc2)CC1", "Potency": "inactive"},
      {"compound": "CC(C)(C)C(=O)Nc1ccc2nc(SCc3ccccc3)sc2c1", "Potency": "inactive"},
      {"compound": "Cc1cc(N/N=C/c2ccc(F)cc2)nc(NCc2ccccc2)n1", "Potency": "inconclusive: 10 µM [inhibitor, partial curve, poor fit]"},
      {"compound": "COc1ccc(-n2c(O)c(/C(C)=N/N3CCCCCC3)c(=O)[nH]c2=O)cc1", "Potency": "inconclusive: 35.5 µM [activator, single point]"},
      {"compound": "CC(C)(C)C1CCC(OC(=O)c2ccncc2)CC1", "note": "(stereo not drawn)", "Potency": "inactive"},
      {"compound": "Cc1cccc(NC(=O)CC2C(=O)OCCN2Cc2ccccc2)c1", "note": "(stereo not drawn)", "Potency": "inactive"},
      {"compound": "CO/N=C/c1ccc(Oc2ccc([N+](=O)[O-])cc2[N+](=O)[O-])c(OC)c1", "Potency": "inconclusive: 29.1 µM [inhibitor, single point]"},
      {"compound": "COC(=O)c1ccccc1NC(=O)Cn1cc2c(n1)CCC(C)C2", "note": "(stereo not drawn)", "Potency": "inconclusive: 0.259 µM [activator, single point]"},
      {"compound": "Nc1c(N(CCC2=CCCCC2)C(=O)C2CC2)c(=O)[nH]c(=O)n1Cc1ccccc1", "Potency": "inconclusive: 3.98 µM [inhibitor, single point]"},
      {"compound": "CCCNc1c(N)c(=O)oc2ccccc12", "Potency": "inconclusive: 16.4 µM [activator, partial curve, poor fit]"},
      {"compound": "Cc1ccc(NC(=O)CC2Nc3ccccc3NC2=O)cc1Cl", "note": "(stereo not drawn)", "Potency": "inconclusive: 35.5 µM [inhibitor, single point]"},
      {"compound": "CCOC(=O)c1ccccc1NC(=O)/C=C/C(=O)O", "Potency": "inconclusive: 1 µM [activator, partial curve, poor fit]"},
      {"compound": "COc1ccc(C=NNC(=O)c2cc(C)oc2C)cc1O", "Potency": "inconclusive: 35.5 µM [inhibitor, partial curve, poor fit]"},
      {"compound": "CC1=NN(c2cccc(F)c2)C(=O)/C1=C/c1ccc(N(C)C)cc1", "Potency": "inconclusive: 6.31 µM [inhibitor, single point]"},
      {"compound": "COCCNc1cc(N)c([N+](=O)[O-])cc1[N+](=O)[O-]", "Potency": "inactive"},
      {"compound": "O=C(CCn1c(=O)sc2ccccc21)NCCC1=CCCCC1", "Potency": "inactive"},
      {"compound": "O=C(NCCCN1CCCC1=O)c1cccc(S(=O)(=O)Nc2ccc(Br)cc2)c1", "Potency": "inactive"},
      {"compound": "O=C(Nc1cccc(Cl)c1)Nc1nnc(-c2ccncc2)s1", "Potency": "inconclusive: 4.47 µM [inhibitor, full curve, poor fit]"},
      {"compound": "O=C(O)C1C2CC3C(OC(=O)C31)C2Cl", "note": "(stereo not drawn)", "Potency": "inconclusive: 0.1 µM [inhibitor, full curve, poor fit]"},
      {"compound": "O=C(N/N=C\\c1ccc(F)cc1)c1cc(OCC(F)(F)F)ccc1OCC(F)(F)F", "Potency": "inactive"},
      {"compound": "N#CC(C#N)=Cc1ccc(-c2ccc(S(=O)(=O)N=C(N)N)cc2)o1", "Potency": "inconclusive: 18.4 µM [inhibitor, partial curve, poor fit]"},
      {"compound": "COc1ccc(C(=O)Nc2cccc(OC(=O)c3ccc(C)c(C)c3)c2)cc1", "Potency": "inconclusive: 2.82 µM [inhibitor, single point]"},
      {"compound": "CC(C)c1ccc(OCC(=O)Nc2c3c(nn2C(C)(C)C)CS(=O)(=O)C3)cc1", "Potency": "inconclusive: 35.5 µM [inhibitor, partial curve, poor fit]"}
    ]}
  ]
}
